Among the data in patent US20230054375A1 (UAB RESEARCH FOUNDATION, published 2023) are binding values, retold here.

Sequences of proteins named here, by UniProt entry; tags and fusion partners are left off. Residues count along the entry.
UniProt Q08722, residues 19-141: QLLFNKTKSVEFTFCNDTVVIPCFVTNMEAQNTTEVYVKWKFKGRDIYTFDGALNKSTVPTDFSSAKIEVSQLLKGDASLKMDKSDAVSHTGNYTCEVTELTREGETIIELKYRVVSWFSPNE

Test [1] addresses HEK293 expressed mFc fused CD47 peptide (Gln19-Glu141) (UniProt Q08722). As to the kind of experiment: ELISA screening of hybridoma clones on coated HEK293 expressed CD47 peptide (Gln19-Glu141), read at OD405, mean±SEM, n=3.
For test [2] the target is unchanged. As to the kind of experiment: ELISA screening of hybridoma clones, peptide coated. For orientation: In an ELISA, binding on a coated surface is turned into a signal by an enzyme label.

No constants are given. Whether binding was seen depends on the method and setting. Some results given as binding are weak or reduced against the parent protein; the word gives no strength.

B1: anti-CD47 monoclonal antibody (IgG2b/kappa) (antibody, V domains shown)
VH: EVQLVESGGGLVQPKGSLKLSCAASGFTFNTYAMNWVRQAPGKGLEWIARIRSKSNNYATYYADSMKDRFTISRDDSQSMLYLQMNNLKTEDTAMYYCVRPAQGAMDYWGHGTSVTVSS
VL: DIVLTQSPATLSVTPGDSVSLSCRASQRISNNLHWYQQKSHESPRLLIKYSSQSISGIPSRFSGSGSGTDFTLSINSVETEDFGMYFCQQSNAWPYTFGGGTKLEIRR
notes: The antibody was labelled with Alexa Fluor 647 for flow cytometry and confocal imaging; also called anti-CD47 mAb; CD47 mAb
As to B1, the binding result in test [1] and in test [2] was “binds” throughout.
